From the supplement of paper PMC7858590 come the findings set out here.

Each structure is given as a SMILES string. ± gives the standard deviation of the averaged measurements. The full ranking holds about 3,800 compounds; the median of “cell shape (eccentricity) Z-score vs DMSO control” is about 1.1, and the lowest 2% start at about -4.7. Some of the results follow.

In this assay the test system is human monocyte-derived macrophages (M0). The experiment in a line: cell shape (eccentricity) Z-score vs DMSO control; higher = more elongated, M2-like morphology. The note with it: 20 µM; 24 h; macrophage state: M0 (M-CSF). Here is the method: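 Primary human monocyte-derived macrophages (M-CSF differentiated, pooled from 4 donors, 5000 cells/well in 384-well plates) were treated with each compound at 20 uM for 24 h, then fixed and stained with phalloidin/DAPI and imaged on an Opera Phenix (6 fields, about 1000 cells/well). Cell eccentricity was measured with CellProfiler, and a Z-score (t-test) was computed against 4 DMSO control wells in the same row. Negative values mean round (M1-like) cells and positive values mean elongated (M2-like) cells; the paper's hit cutoffs are Z <= -4 (M1) and Z >= 6 (M2). Scale: negative = round, M1-like.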
On to `Cc1ccccc1C(=O)c1ccc(Nc2ccc(Br)cc2N)cc1Cl`, for which the “cell shape (Z-score)” value is -0.179.

On to `O=C(O)Cc1csc(-c2ccc(Cl)cc2)n1`, for which the “cell shape (Z-score)” value was -1.51. With `COc1ccc(C(=O)c2ccccc2)c(O)c1`, the “cell shape (Z-score)” value is 0.27. With `CC12CC(c3ccoc3)OC(=O)C1CCC1(C)C2C2OC(=O)C1(O)C1OC21` (stereo unspecified) the figure was 2.8; with `CCN1CCCC1CNC(=O)c1cc(S(=O)(=O)CC)c(N)cc1OC` (stereo unspecified), -0.27. The figure for `Clc1cccc2c1CN(C1=NCCN1)C2` is 0.256.

As for `COc1ncnc(NS(=O)(=O)c2ccc(N)cc2)c1OC`, the “cell shape (Z-score)” value was -0.361. Consider `NCCCCCCNS(=O)(=O)c1cccc2ccccc12`, for which the “cell shape (Z-score)” value came out at 3.27. Regarding `CC(C)(O)/C=C/C1=CC(O)C(C)(O)CC1O` (stereo unspecified), the “cell shape (Z-score)” value is -0.696. With `CC1CCC2(C)C(C(=O)O)=CCCC2C1(C)CCC1=CC(O)OC1=O` (stereo unspecified) the figure was -0.873; with `COc1c(O)cc2c(c1O)C(=O)OC(C)C2Oc1cc2c(c(O)c1OC)C(=O)OC(C)C2O` (stereo unspecified), -2.06. In the case of `N#CCNC(=O)c1ccc(-c2ccnc(Nc3ccc(N4CCOCC4)cc3)n2)cc1`, the “cell shape (Z-score)” value amounted to 13.3. With `c1ccc(CNc2ncnc3ccccc23)cc1`, the “cell shape (Z-score)” value came out at 2.78 ± 0.59. The figure for `CC1CC(=O)[C@]2(C)CC[C@]3(C)C(C(=O)C(O)C4[C@@]5(C)CC[C@H](O)C(C)(C(=O)O)C5CC[C@]43C)C2C1C` (stereo partly specified) is 2.52; for `CC(=O)O[C@H]1C[C@@H](OC(C)=O)C(C)(C)C2C[C@@H](O)[C@]3(C)C(CC[C@@]4(C)[C@H](c5ccoc5)OC(=O)[C@H]5O[C@]543)[C@]21C` (stereo partly specified) it is 1.01. The figure for `COc1cc(O)c(OC)c2c1C(=O)CC(c1ccccc1)O2` (stereo unspecified) is 1.66.

`COc1cc(N)c(Cl)cc1C(=O)N[C@@H]1CCN(CCCOc2ccc(F)cc2)C[C@@H]1OC`: the “cell shape (Z-score)” value stood at 0.777. As to `CCc1ccccc1OC[C@@H](O)CN[C@H]1CCCc2ccccc21`, the “cell shape (Z-score)” value amounted to 2.06. `C=C1C[C@@]23CC[C@@H]4[C@](C)(CO)CCC[C@@]4(C)[C@@H]2CC[C@@H]1C3`: the “cell shape (Z-score)” value stood at 2.2.

Take `C[C@@H]1O[C@@H](O[C@H]2[C@@H]3C=CO[C@@H](O[C@@H]4O[C@H](CO)[C@@H](O)[C@H](O)[C@H]4O)[C@@H]3[C@@]3(CO)O[C@@H]23)[C@H](OC(=O)/C=C/c2ccccc2)[C@H](O)[C@H]1O`: the “cell shape (Z-score)” value is -1.05. On to `O=C(O)c1cccnc1Nc1cccc(C(F)(F)F)c1`, for which the “cell shape (Z-score)” value amounted to 2.97.

As for `CC(C)(C)OC(=O)Nc1ccc(-c2cc(C(=O)NCCCCCCC(=O)NO)no2)cc1`, the “cell shape (Z-score)” value is 5.77. Take `C[C@]12CCC3c4ccc(O)cc4CCC3C1CCC2=O` (stereo partly specified): the “cell shape (Z-score)” value was 4.84. With `CCc1nn(CCCN2CCN(c3cccc(Cl)c3)CC2)c(=O)n1CCOc1ccccc1` the figure was 2.38; with `C=CC(C)(O)CC/C=C(\C)CCC(O)C(C)(C)O` (stereo unspecified), 0.991. Turning to `C[C@@H]1CC[C@]2(C(=O)O)CC[C@]3(C(=O)O)C(=CCC4[C@@]5(C)CC[C@H](O[C@@H]6O[C@@H](C)[C@H](O[C@@H]7O[C@H](CO)[C@@H](O)[C@H](O)[C@H]7O)[C@@H](O)[C@H]6O)C(C)(C)C5CC[C@]43C)C2[C@H]1C` (stereo partly specified), the “cell shape (Z-score)” value was -0.0356.
